{"source": "PubChem BioAssay AID1259405 (NCATS, 2018)", "screen": "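Knock-downs that lift recombinant protein yield in hamster ovary cells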 (primary screen)", "cell system": "Chinese hamster CHO-K1 ovary cells with stable secreted eGFP expression", "reagent": "single siRNA against mouse genes, 0.8 pmol siRNA per well (2 µl of 400 nM stock)", "duration": "3 days", "read-out": "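Per-well intracellular GFP measured by laser scanning cytometry, plus viability from ATP luminescence, each relative to plate median of non-targeting control wells, in %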", "scale": "GFP, % of control: higher = more GFP per well, higher productivity; viability (ATP), % of control: higher = more viable cells (more ATP)", "active means": "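a knock-down is called active if GFP reaches 120% or more of non-targeting control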", "note": "Here is one part, drawn at random, of about 50,000 reagents. Over the whole deposit, about 4,000 (8%) are marked active. 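Mouse siRNA library applied to hamster cells; one well for each siRNA.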 A number with no mark means an inactive call. Reagents against one gene are numbered here. No sequences are given here."}
{"gene":"Vezf1 (GeneID 22344)","reagent":1,"GFP, % of control":89,"viability (ATP), % of control":88.4}
{"gene":"Vezf1 (GeneID 22344)","reagent":2,"GFP, % of control":63.8,"viability (ATP), % of control":68.4}
{"gene":"Scel (GeneID 64929)","reagent":1,"GFP, % of control":31.9,"viability (ATP), % of control":33.9}
{"gene":"Scel (GeneID 64929)","reagent":2,"GFP, % of control":54.8,"viability (ATP), % of control":74.1}
{"gene":"Scel (GeneID 64929)","reagent":3,"GFP, % of control":58.9,"viability (ATP), % of control":88.4}
{"gene":"Grik1 (GeneID 14805)","reagent":1,"GFP, % of control":86.8,"viability (ATP), % of control":102}
{"gene":"Grik1 (GeneID 14805)","reagent":2,"GFP, % of control":64.3,"viability (ATP), % of control":77.6}
{"gene":"Grik1 (GeneID 14805)","reagent":3,"GFP, % of control":"165 (active)","viability (ATP), % of control":80.3}
{"gene":"Krtap3-2 (GeneID 66708)","reagent":1,"GFP, % of control":60.5,"viability (ATP), % of control":71.1}
{"gene":"Krtap3-2 (GeneID 66708)","reagent":2,"GFP, % of control":43.5,"viability (ATP), % of control":55.3}
{"gene":"Krtap3-2 (GeneID 66708)","reagent":3,"GFP, % of control":42,"viability (ATP), % of control":60.6}
{"gene":"Cfap298 (GeneID 68001)","reagent":1,"GFP, % of control":67.2,"viability (ATP), % of control":69}
{"gene":"Cfap298 (GeneID 68001)","reagent":2,"GFP, % of control":64.4,"viability (ATP), % of control":53.2}
{"gene":"Cfap298 (GeneID 68001)","reagent":3,"GFP, % of control":30.9,"viability (ATP), % of control":18.2}

Continued; the last 2 above are carried over.
{"gene":"Cfap298 (GeneID 68001)","reagent":2,"GFP, % of control":64.4,"viability (ATP), % of control":53.2}
{"gene":"Cfap298 (GeneID 68001)","reagent":3,"GFP, % of control":30.9,"viability (ATP), % of control":18.2}
{"gene":"Or6z6 (GeneID 258383)","reagent":1,"GFP, % of control":67,"viability (ATP), % of control":69.2}
{"gene":"Or6z6 (GeneID 258383)","reagent":2,"GFP, % of control":54.3,"viability (ATP), % of control":79.4}
{"gene":"Or6z6 (GeneID 258383)","reagent":3,"GFP, % of control":50.9,"viability (ATP), % of control":85.3}
{"gene":"Or4m1 (GeneID 258658)","reagent":1,"GFP, % of control":"132 (active)","viability (ATP), % of control":107}
{"gene":"Or4m1 (GeneID 258658)","reagent":2,"GFP, % of control":"167 (active)","viability (ATP), % of control":91.9}
{"gene":"Or4m1 (GeneID 258658)","reagent":3,"GFP, % of control":82.8,"viability (ATP), % of control":91.7}
{"gene":"9330155M09Rik (GeneID 320756)","reagent":1,"GFP, % of control":82.6,"viability (ATP), % of control":68.2}
{"gene":"9330155M09Rik (GeneID 320756)","reagent":2,"GFP, % of control":36.5,"viability (ATP), % of control":55.3}
{"gene":"9330155M09Rik (GeneID 320756)","reagent":3,"GFP, % of control":84.3,"viability (ATP), % of control":85.2}
{"gene":"Spink12 (GeneID 78242)","reagent":1,"GFP, % of control":72.9,"viability (ATP), % of control":61.1}
{"gene":"Spink12 (GeneID 78242)","reagent":2,"GFP, % of control":91.2,"viability (ATP), % of control":70.1}
{"gene":"Spink12 (GeneID 78242)","reagent":3,"GFP, % of control":"126 (active)","viability (ATP), % of control":91.2}
{"gene":"Fgg (GeneID 99571)","reagent":1,"GFP, % of control":62.6,"viability (ATP), % of control":70.3}
{"gene":"Fgg (GeneID 99571)","reagent":2,"GFP, % of control":62.4,"viability (ATP), % of control":69.4}
{"gene":"Fgg (GeneID 99571)","reagent":3,"GFP, % of control":91.2,"viability (ATP), % of control":81.6}
{"gene":"Cpa4 (GeneID 71791)","reagent":1,"GFP, % of control":57.9,"viability (ATP), % of control":85.7}
{"gene":"Cpa4 (GeneID 71791)","reagent":2,"GFP, % of control":45.9,"viability (ATP), % of control":44.6}
{"gene":"Cpa4 (GeneID 71791)","reagent":3,"GFP, % of control":46.4,"viability (ATP), % of control":66.5}
{"gene":"Or5k3 (GeneID 259000)","reagent":1,"GFP, % of control":79.9,"viability (ATP), % of control":72.8}
{"gene":"Or5k3 (GeneID 259000)","reagent":2,"GFP, % of control":39.2,"viability (ATP), % of control":50.3}
{"gene":"Or5k3 (GeneID 259000)","reagent":3,"GFP, % of control":103,"viability (ATP), % of control":91.6}
{"gene":"Dsg4 (GeneID 16769)","reagent":1,"GFP, % of control":92.3,"viability (ATP), % of control":98.9}
{"gene":"Dsg4 (GeneID 16769)","reagent":2,"GFP, % of control":94.4,"viability (ATP), % of control":81.8}
{"gene":"Gon4l (GeneID 76022)","reagent":1,"GFP, % of control":98.6,"viability (ATP), % of control":68.2}
{"gene":"Gon4l (GeneID 76022)","reagent":2,"GFP, % of control":85.1,"viability (ATP), % of control":100}
{"gene":"Gon4l (GeneID 76022)","reagent":3,"GFP, % of control":67.1,"viability (ATP), % of control":85.1}
